Laboratory results published in the supplement of paper PMC12823440, “Inhibitors supercharge kinase turnover through native proteolytic circuits” (Nature, 2025).
Structures can show the parent of a compound that is named as a salt. The list shows a part of the results. The calls rarely recur for the same compound in another form.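 In K562 cells expressing nanoluciferase-fused kinases, luminescence was recorded at 4 h intervals between 2 and 18 h, normalized as percent of control with DMSO at 100% and a positive control at 0%. A significant (2 sigma) signal drop marks a time point as decreased. The authors' rule for a hit is not shown and takes in more than the number of time points.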

Sequences of proteins named here, by UniProt entry; tags and fusion partners are left off. A change or cut given only in a name is not applied to a line headed by its entry.
UniProt P28482, whole entry: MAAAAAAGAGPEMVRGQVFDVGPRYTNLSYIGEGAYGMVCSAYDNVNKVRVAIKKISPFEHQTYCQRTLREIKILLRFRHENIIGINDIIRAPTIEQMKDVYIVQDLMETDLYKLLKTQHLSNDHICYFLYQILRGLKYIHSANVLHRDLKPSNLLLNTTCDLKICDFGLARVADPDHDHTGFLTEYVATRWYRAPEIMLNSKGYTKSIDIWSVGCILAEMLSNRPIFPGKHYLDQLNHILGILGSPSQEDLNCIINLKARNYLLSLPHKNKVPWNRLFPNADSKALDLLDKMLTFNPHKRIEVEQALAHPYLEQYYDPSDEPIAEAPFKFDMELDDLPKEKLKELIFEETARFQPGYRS
UniProt P31152, whole entry: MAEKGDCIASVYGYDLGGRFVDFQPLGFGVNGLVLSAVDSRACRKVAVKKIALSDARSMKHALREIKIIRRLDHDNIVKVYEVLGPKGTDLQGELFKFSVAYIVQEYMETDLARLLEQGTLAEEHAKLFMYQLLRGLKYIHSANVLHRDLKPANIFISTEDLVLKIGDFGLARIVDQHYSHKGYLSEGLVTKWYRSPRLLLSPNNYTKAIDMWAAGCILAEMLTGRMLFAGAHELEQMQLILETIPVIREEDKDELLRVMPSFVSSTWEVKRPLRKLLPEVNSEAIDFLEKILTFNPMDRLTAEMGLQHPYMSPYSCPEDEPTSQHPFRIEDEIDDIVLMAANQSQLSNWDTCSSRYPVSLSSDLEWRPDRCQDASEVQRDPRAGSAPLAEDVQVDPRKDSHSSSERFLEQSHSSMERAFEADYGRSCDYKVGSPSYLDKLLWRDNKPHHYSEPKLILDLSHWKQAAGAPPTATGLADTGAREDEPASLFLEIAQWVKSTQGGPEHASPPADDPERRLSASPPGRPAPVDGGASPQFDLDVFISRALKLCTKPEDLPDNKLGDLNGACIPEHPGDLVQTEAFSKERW
UniProt P49137, whole entry, looked up: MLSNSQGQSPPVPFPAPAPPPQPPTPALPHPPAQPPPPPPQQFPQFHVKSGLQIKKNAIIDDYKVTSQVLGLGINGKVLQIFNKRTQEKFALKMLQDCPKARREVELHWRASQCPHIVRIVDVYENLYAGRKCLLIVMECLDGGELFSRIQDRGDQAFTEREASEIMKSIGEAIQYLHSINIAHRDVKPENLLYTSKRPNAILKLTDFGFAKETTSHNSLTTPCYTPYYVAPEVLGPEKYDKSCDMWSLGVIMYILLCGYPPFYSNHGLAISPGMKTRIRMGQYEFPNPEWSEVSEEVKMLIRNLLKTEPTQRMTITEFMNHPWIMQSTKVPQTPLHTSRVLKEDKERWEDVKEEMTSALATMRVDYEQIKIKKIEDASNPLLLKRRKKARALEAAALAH
UniProt Q9BUB5: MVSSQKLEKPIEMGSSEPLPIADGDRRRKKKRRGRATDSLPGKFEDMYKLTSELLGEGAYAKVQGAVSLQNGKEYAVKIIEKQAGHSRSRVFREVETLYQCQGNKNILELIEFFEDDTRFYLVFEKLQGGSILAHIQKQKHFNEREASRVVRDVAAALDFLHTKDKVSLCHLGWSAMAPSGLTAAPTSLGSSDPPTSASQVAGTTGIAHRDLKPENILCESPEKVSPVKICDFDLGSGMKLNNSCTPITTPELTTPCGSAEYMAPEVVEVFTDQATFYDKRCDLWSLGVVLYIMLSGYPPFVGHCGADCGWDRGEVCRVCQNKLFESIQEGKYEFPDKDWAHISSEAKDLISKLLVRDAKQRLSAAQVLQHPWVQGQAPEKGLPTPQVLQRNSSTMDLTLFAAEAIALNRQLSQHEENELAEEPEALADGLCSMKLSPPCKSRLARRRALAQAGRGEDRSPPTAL
UniProt Q16620, whole entry, looked up: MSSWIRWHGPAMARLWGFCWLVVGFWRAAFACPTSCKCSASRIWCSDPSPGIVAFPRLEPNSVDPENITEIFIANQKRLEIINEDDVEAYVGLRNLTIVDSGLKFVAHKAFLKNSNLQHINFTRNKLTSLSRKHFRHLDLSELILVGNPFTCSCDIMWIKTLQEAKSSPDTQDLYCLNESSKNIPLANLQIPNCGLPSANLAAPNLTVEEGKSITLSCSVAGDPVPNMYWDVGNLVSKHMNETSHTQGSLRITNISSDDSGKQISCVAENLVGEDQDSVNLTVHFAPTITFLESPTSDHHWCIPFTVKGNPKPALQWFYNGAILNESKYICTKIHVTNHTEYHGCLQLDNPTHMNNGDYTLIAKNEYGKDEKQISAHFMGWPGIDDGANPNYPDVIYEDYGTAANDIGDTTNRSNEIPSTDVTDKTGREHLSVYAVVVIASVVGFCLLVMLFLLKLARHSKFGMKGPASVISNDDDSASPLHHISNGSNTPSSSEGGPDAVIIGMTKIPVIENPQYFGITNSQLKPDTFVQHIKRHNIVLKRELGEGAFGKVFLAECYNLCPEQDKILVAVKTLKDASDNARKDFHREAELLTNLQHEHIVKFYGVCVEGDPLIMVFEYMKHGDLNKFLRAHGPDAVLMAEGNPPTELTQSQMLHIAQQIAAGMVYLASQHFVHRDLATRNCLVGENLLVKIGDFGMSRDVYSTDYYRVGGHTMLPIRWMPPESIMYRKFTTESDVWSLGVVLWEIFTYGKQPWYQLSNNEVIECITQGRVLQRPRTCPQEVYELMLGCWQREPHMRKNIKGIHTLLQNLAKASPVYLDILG
UniProt Q16288, whole entry, looked up: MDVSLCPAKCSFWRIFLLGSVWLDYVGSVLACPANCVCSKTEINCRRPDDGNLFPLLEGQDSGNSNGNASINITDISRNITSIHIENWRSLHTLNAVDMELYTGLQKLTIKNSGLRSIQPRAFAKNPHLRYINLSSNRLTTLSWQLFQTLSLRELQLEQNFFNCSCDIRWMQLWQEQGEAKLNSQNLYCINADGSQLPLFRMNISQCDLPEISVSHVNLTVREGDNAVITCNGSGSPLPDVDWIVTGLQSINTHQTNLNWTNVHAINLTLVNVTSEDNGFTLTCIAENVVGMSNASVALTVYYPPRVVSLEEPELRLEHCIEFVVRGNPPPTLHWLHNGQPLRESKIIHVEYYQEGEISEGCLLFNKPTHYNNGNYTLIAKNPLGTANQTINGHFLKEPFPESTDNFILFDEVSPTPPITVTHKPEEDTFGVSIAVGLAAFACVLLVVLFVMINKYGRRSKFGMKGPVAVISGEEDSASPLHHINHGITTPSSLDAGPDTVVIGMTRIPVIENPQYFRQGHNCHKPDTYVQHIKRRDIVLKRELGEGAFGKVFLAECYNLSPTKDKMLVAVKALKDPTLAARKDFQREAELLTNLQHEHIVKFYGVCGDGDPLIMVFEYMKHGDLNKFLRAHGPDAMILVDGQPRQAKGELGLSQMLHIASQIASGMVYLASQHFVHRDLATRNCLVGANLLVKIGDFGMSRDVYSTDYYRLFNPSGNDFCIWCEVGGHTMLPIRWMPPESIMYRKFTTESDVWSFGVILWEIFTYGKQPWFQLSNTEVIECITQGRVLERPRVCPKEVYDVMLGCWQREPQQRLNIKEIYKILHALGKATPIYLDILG
UniProt O96013: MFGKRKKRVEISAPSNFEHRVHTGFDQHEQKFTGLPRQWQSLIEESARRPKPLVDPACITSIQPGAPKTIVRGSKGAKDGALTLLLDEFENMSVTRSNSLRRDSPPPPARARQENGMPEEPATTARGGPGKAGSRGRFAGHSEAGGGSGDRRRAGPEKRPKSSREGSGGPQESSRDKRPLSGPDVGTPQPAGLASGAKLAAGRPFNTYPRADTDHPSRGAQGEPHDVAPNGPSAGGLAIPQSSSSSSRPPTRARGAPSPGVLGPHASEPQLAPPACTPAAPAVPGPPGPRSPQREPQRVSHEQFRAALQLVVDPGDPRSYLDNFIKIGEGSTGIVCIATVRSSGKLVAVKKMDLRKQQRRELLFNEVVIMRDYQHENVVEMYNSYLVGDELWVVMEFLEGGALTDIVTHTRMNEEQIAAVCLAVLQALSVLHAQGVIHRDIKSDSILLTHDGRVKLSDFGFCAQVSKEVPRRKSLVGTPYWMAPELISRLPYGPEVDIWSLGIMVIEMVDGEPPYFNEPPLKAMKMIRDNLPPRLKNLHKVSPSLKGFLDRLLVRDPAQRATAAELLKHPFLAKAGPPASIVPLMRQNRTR
UniProt Q96KB5: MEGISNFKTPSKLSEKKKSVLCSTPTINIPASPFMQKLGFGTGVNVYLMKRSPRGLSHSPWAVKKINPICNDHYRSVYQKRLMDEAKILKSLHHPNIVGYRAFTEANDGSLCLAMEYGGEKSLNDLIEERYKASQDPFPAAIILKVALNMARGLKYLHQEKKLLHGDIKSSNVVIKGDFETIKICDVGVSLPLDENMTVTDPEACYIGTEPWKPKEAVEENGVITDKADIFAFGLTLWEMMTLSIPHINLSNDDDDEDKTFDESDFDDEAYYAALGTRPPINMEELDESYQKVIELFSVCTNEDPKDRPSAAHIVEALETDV
UniProt P09619, whole entry: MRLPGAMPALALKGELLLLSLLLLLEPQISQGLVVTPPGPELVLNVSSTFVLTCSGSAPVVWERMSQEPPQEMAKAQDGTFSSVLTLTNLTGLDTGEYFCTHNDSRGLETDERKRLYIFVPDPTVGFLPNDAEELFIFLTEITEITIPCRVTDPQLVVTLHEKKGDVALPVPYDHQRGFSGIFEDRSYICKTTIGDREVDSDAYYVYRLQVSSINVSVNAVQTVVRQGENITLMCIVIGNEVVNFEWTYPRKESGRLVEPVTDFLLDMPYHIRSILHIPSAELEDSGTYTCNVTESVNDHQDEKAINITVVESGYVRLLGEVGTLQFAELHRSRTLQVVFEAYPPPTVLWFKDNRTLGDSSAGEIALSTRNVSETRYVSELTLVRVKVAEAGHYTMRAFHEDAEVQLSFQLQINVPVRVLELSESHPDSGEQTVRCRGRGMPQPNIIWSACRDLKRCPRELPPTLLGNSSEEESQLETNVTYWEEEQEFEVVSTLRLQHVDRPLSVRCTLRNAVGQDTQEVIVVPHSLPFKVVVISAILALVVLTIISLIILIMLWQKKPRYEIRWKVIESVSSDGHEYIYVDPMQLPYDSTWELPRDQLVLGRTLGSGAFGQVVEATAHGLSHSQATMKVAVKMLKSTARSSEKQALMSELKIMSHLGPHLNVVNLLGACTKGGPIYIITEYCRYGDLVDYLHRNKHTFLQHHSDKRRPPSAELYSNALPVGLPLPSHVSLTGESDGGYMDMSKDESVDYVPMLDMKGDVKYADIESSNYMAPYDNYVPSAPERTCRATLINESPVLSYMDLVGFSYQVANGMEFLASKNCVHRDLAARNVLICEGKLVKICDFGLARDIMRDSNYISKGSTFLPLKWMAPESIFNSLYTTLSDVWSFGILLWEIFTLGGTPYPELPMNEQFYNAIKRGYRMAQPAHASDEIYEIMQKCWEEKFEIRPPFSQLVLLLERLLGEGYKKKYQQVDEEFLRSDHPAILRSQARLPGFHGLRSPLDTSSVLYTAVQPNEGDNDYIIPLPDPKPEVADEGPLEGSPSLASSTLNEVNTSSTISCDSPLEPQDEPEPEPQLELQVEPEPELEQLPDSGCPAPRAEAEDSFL
UniProt Q15118, whole entry, looked up: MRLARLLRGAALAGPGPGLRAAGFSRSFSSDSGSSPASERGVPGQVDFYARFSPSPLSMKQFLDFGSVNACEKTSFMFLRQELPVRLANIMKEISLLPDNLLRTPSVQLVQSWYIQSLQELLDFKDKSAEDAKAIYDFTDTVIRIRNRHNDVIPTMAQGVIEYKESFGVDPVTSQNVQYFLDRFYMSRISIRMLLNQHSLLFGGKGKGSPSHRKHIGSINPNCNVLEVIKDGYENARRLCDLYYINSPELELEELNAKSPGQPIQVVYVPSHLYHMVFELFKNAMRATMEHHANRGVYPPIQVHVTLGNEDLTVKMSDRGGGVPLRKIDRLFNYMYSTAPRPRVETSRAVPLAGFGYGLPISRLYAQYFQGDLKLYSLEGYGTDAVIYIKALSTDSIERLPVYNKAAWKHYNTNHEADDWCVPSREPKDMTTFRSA

Columns and labels:
Assay in all cases: kinase-Nluc reporter destabilization hit call (1 = scored as downregulated) (binary); higher = compound decreases kinase abundance
Conditions in all cases: K562; 2-18 h
[1] = target: MAPK1 (UniProt P28482)
[2] = target: MAPK4 (UniProt P31152)
[3] = target: MAPKAPK2 (UniProt P49137)
[4] = target: MKNK1 (UniProt Q9BUB5)
[5] = target: NTRK2 (UniProt Q16620)
[6] = target: NTRK3 (UniProt Q16288)
[7] = target: PAK4 (UniProt O96013)
[8] = target: PBK (UniProt Q96KB5)
[9] = target: PDGFRB (UniProt P09619)
[10] = target: PDK1 (UniProt Q15118)

Measured: kinase-Nluc reporter destabilization hit call

C=CC(=O)Nc1cccc(Nc2nc(Nc3ccc(OCCOC)cc3)ncc2F)c1 [Spebrutinib] (10 µM)
inactive: [1] 0 | [2] 0 | [3] 0 | [4] 0 | [5] 0 | [6] 0 | [7] 0 | [8] 0 | [9] 0 | [10] 0

CN1CCN(S(=O)(=O)c2ccc(-c3cnc(N)c(C(=O)Nc4cccnc4)n3)cc2)CC1 (10 µM)
inactive: [1] 0 | [2] 0 | [3] 0 | [4] 0 | [5] 0 | [6] 0 | [7] 0 | [8] 0 | [9] 0 | [10] 0

Oc1ccc(-c2nc(-c3ccc(F)cc3)c(-c3ccncc3)[nH]2)cc1 (2.5 µM)
inactive: [1] 0 | [2] 0 | [3] 0 | [4] 0 | [5] 0 | [6] 0 | [7] 0 | [8] 0 | [9] 0 | [10] 0

COc1cc2ncn(-c3cc(OCc4ccccc4C(F)(F)F)c(C(N)=O)s3)c2cc1OC (10 µM)
inactive: [1] 0 | [2] 0 | [3] 0 | [4] 0 | [5] 0 | [6] 0 | [7] 0 | [8] 0 | [9] 0 | [10] 0

Cc1c(NC(=O)c2cc3c(s2)CCCC3)cccc1-c1cn(C)c(=O)c(Nc2ccc([C@@H]3C(=O)N(C)CCN3C)cc2)n1 (10 µM)
inactive: [1] 0 | [2] 0 | [3] 0 | [4] 0 | [5] 0 | [6] 0 | [7] 0 | [8] 0 | [9] 0 | [10] 0

O=C1Nc2ccccc2/C1=C/c1ccc(F)cc1 (10 µM)
inactive: [1] 0 | [2] 0 | [3] 0 | [4] 0 | [5] 0 | [6] 0 | [7] 0 | [8] 0 | [9] 0 | [10] 0

No new results follow: two of the compounds above.
Oc1ccc(-c2nc(-c3ccc(F)cc3)c(-c3ccncc3)[nH]2)cc1 (2.5 µM)
inactive: [1] 0 | [2] 0 | [3] 0 | [4] 0 | [5] 0 | [6] 0 | [7] 0 | [8] 0 | [9] 0 | [10] 0

COc1cc2ncn(-c3cc(OCc4ccccc4C(F)(F)F)c(C(N)=O)s3)c2cc1OC (10 µM)
inactive: [1] 0 | [2] 0 | [3] 0 | [4] 0 | [5] 0 | [6] 0 | [7] 0 | [8] 0 | [9] 0 | [10] 0

Continuation:

Cc1c[nH]c(/C=C2\C(=O)Nc3ccccc32)c1CCC(=O)O (10 µM)
inactive: [1] 0 | [2] 0 | [3] 0 | [4] 0 | [5] 0 | [6] 0 | [7] 0 | [8] 0 | [9] 0 | [10] 0

Oc1cc(O)cc(/C=C/c2ccc(O)c(O)c2)c1 [Piceatannol] (10 µM)
inactive: [1] 0 | [2] 0 | [3] 0 | [4] 0 | [5] 0 | [6] 0 | [7] 0 | [8] 0 | [9] 0 | [10] 0

CC(C)CC(=O)Nc1n[nH]c2c1CN(C(=O)C1CCN(C)CC1)C2(C)C (2.5 µM)
inactive: [1] 0 | [2] 0 | [3] 0 | [4] 0 | [5] 0 | [6] 0 | [7] 0 | [8] 0 | [9] 0 | [10] 0

C=CC(=O)N1CCN(CCCn2c(=O)c(-c3c(Cl)c(OC)cc(OC)c3Cl)cc3cnc(NC)nc32)CC1 (10 µM)
inactive: [1] 0 | [2] 0 | [3] 0 | [4] 0 | [5] 0 | [6] 0 | [7] 0 | [8] 0 | [9] 0 | [10] 0

O=C(O)CCNC(=O)c1ccc(/N=N/c2ccc(O)c(C(=O)O)c2)cc1 [Balsalazide] (10 µM)
inactive: [1] 0 | [2] 0 | [3] 0 | [4] 0 | [5] 0 | [6] 0 | [7] 0 | [8] 0 | [9] 0 | [10] 0

CCN(CCO)CCCOc1ccc2c(Nc3cc(CC(=O)Nc4cccc(F)c4)[nH]n3)ncnc2c1 [Barasertib-HQPA] (10 µM)
inactive: [1] 0 | [2] 0 | [3] 0 | [4] 0 | [5] 0 | [6] 0 | [7] 0 | [8] 0 | [9] 0 | [10] 0

CCc1nc(-c2cccc(C)c2)c(-c2ccnc(NC(=O)c3ccccc3)c2)s1 (10 µM)
inactive: [1] 0 | [2] 0 | [3] 0 | [4] 0 | [5] 0 | [6] 0 | [7] 0 | [8] 0 | [9] 0 | [10] 0

Cc1ccc(NC(=O)c2cccc(N(C)C)c2)cc1NC(=O)c1ccc(O)cc1 (10 µM)
inactive: [1] 0 | [2] 0 | [3] 0 | [4] 0 | [5] 0 | [6] 0 | [7] 0 | [8] 0 | [9] 0 | [10] 0

CC(C)(C#N)c1ccc(N2C(=O)OCc3cnc4ccc(-c5cnc6ccccc6c5)cc4c32)cc1 (2.5 µM)
inactive: [1] 0 | [2] 0 | [3] 0 | [4] 0 | [5] 0 | [6] 0 | [7] 0 | [8] 0 | [9] 0 | [10] 0

O=C(NOC[C@H](O)CO)c1ccc(F)c(F)c1Nc1ccc(I)cc1F (2.5 µM)
inactive: [1] 0 | [2] 0 | [3] 0 | [4] 0 | [5] 0 | [6] 0 | [7] 0 | [8] 0 | [9] 0 | [10] 0

Cc1c(C(=O)N2CCOc3ccc(-c4ccc(N)nc4)cc3C2)ccc(S(C)(=O)=O)c1F (10 µM)
inactive: [1] 0 | [2] 0 | [3] 0 | [4] 0 | [5] 0 | [6] 0 | [7] 0 | [8] 0 | [9] 0 | [10] 0

Cn1nc(C(C)(C)C)cc1NC(=O)Nc1ccc(Oc2ccncc2)cc1 (10 µM)
inactive: [1] 0 | [2] 0 | [3] 0 | [4] 0 | [5] 0 | [6] 0 | [7] 0 | [8] 0 | [9] 0 | [10] 0

CCN1C(=O)N(c2c(F)c(OC)cc(OC)c2F)Cc2cnc3[nH]c(CN4CCOCC4)cc3c21 [Pemigatinib] (10 µM)
inactive: [1] 0 | [2] 0 | [3] 0 | [4] 0 | [5] 0 | [6] 0 | [7] 0 | [8] 0 | [9] 0 | [10] 0

COc1ccc(NC(=O)N2CCN(c3nc(N)nc4c3cnn4C)[C@@H](C)C2)c(C)c1 (10 µM)
inactive: [1] 0 | [2] 0 | [3] 0 | [4] 0 | [5] 0 | [6] 0 | [7] 0 | [8] 0 | [9] 0 | [10] 0

CN(C)CCOc1ccc(-c2nc(-c3ccncc3)c(-c3ccc4c(c3)CC/C4=N\O)[nH]2)cc1 (10 µM)
inactive: [1] 0 | [2] 0 | [3] 0 | [4] 0 | [5] 0 | [6] 0 | [7] 0 | [8] 0 | [9] 0 | [10] 0

CN1CCN(c2ccc(Nc3cc(-c4cccc(-n5ccc6cc(C7CC7)cc(F)c6c5=O)c4CO)cn(C)c3=O)nc2)CC1 (2.5 µM)
inactive: [1] 0 | [2] 0 | [3] 0 | [4] 0 | [5] 0 | [6] 0 | [7] 0 | [8] 0 | [9] 0 | [10] 0

COc1cc(OC)c(F)c(COc2cnc(Nc3cnn(CCO)c3)nc2)c1F (2.5 µM)
inactive: [1] 0 | [2] 0 | [3] 0 | [4] 0 | [5] 0 | [6] 0 | [7] 0 | [8] 0 | [9] 0 | [10] 0

O=c1oc2c(C3OCCCO3)c(O)ccc2c2c1CNCC2 (10 µM)
inactive: [1] 0 | [2] 0 | [3] 0 | [4] 0 | [5] 0 | [6] 0 | [7] 0 | [8] 0 | [9] 0 | [10] 0

CCn1cc(-c2ccnc3[nH]c(-c4cccc(CN(C)C)c4)cc23)c(-c2ccc(NC(=O)N(C)C)cc2)n1 (2.5 µM)
inactive: [1] 0 | [2] 0 | [3] 0 | [4] 0 | [5] 0 | [6] 0 | [7] 0 | [8] 0 | [9] 0 | [10] 0

CN1CCC(Nc2ncc3ncnc(Nc4ccc(F)c(Cl)c4)c3n2)CC1 [Falnidamol] (10 µM)
inactive: [1] 0 | [2] 0 | [3] 0 | [4] 0 | [5] 0 | [6] 0 | [7] 0 | [8] 0 | [9] 0 | [10] 0

O=S(=O)(NCCNC/C=C/c1ccc(Br)cc1)c1cccc2cnccc12 [H-89 (dihydrochloride)] (10 µM)
inactive: [1] 0 | [2] 0 | [3] 0 | [4] 0 | [5] 0 | [6] 0 | [7] 0 | [8] 0 | [9] 0 | [10] 0

COCCOc1cc2nccc(Nc3n[nH]c(C)c3C)c2cc1S(=O)(=O)C(C)(C)C [RIP2 kinase inhibitor 2] (2.5 µM)
inactive: [1] 0 | [2] 0 | [3] 0 | [4] 0 | [5] 0 | [6] 0 | [7] 0 | [8] 0 | [9] 0 | [10] 0

COc1ccc(F)c(F)c1C(=O)c1cnc(NC2CCN(S(C)(=O)=O)CC2)nc1N (2.5 µM)
inactive: [1] 0 | [2] 0 | [3] 0 | [4] 0 | [5] 0 | [6] 0 | [7] 0 | [8] 0 | [9] 0 | [10] 0

Cc1cc(N2CCOCC2)cc2[nH]c(-c3c(NC[C@@H](O)c4cccc(Cl)c4)cc[nH]c3=O)nc12 (10 µM)
inactive: [1] 0 | [2] 0 | [3] 0 | [4] 0 | [5] 0 | [6] 0 | [7] 0 | [8] 0 | [9] 0 | [10] 0

CC(C)(/C=C(\C#N)C(=O)N1CCC[C@@H](n2nc(-c3ccc(Oc4ccccc4)cc3F)c3c(N)ncnc32)C1)N1CCN(C2COC2)CC1 (2.5 µM)
inactive: [1] 0 | [2] 0 | [3] 0 | [4] 0 | [5] 0 | [6] 0 | [7] 0 | [8] 0 | [9] 0 | [10] 0
